Measured values from patent US20200010562A1, “NEW THERAPEUTIC STRATEGIES AGAINST BLOOD CANCER” (priority 2015, published 2020).
For at least one compound, name, drawing or mass did not settle the structure. Some of these results come from one statement about several compounds together.

Test system: L1210
Assay: Erythrosin B exclusion survival/mortality of L1210 in control or FMD medium
Type: cell-based, murine

Compound | living cells compared to the untreated samples | killing tumor cells
CC[C@]1(O)C[C@H]2CN(CCc3c([nH]c4ccccc34)[C@@](C(=O)OC)(c3cc4c(cc3OC)N(C=O)[C@H]3[C@@](O)(C(=O)OC)[C@H](OC(C)=O)[C@]5(CC)C=CCN6CC[C@]43[C@@H]65)C2)C1 [Vincristine] | less than 50% | 
C/C=C1\NC(=O)[C@H]2CSSCC/C=C/[C@H](CC(=O)N[C@H](C(C)C)C(=O)N2)OC(=O)[C@H](C(C)C)NC1=O [Romidepsin] |  | very effective in killing tumor cells
